From PMC10163288
This is one part of the list.

B1: il10ra_site1_normal_mot_HHH_b1_06195_000000223_0001_1_19_H_._HHH_b1_03551_0001_0000100010_0000001_0 (protein)
chain: SSSSSQEYSREIYELLREAARLDSEGNPEEARKVLEEAIELAEEGGNLTLLFTLRILERLISSSS
B2: il10ra_site1_normal_mot_HHH_b1_04693_000000238_0001_19_36_H_._HHH_b2_06085_af2_0001_0000400011_0000001_0 (protein)
chain: SSSSSDQELYELIRELIELLLEGDEEKIEKLEEEIEKLAEELNNEVLLFSARAARRLQRKSSSSS
B3: il10ra_site1_sap_14_mot_HHH_b2_05343_000000235_0001_19_35_H_._HHH_b2_06220_0001_0000300034_0000001_0_0001_af2pred_0001 (protein)
chain: SSSSSSSENEEVAELLREAAQIEDKEEARKIVEEALELAEELGNKLLALIAKFVLKRLSSSSSSS
B4: il10ra_site1_normal_mot_39a7b8d0c4c3fc04bafbda6ce6101d3a_0001_1_af2_000000014_0001_34_48_H_._HHH_b1_06183_0001_0000200011_0000001_0_af2pred_0001 (protein)
chain: SSSSSDKEVAHILLEVLRLIREGDEEEAERLLEEAQRLAEEANNPELRLLVELVEAQLRSSSSSS
B5: il10ra_site1_sap_15_mot_HHH_b1_00682_000000211_0001_1_20_H_._HHH_b1_01534_0001_0000100001_0000002_0_0001 (protein)
chain: SSSSDLEERIEELEEELREALERGDMETALRLLQELLRLAFWTSDEELMHRLWRIARELASSSSS
B6: il10ra_site1_sap_19_mot_HHH_b2_00230_000000227_0001_1_19_H_._HHH_b1_00716_0001_0000100003_0000001_0_0001 (protein)
chain: SSSSSSVEELAEEAEKLAEERGDEHAKELVRAIKRLAEQGILDPEFAKLSLELLIEELRESSSSS
B7: il10ra_site1_sap_19_mot_HHH_b2_03565_000000130_0001_23_39_H_._HHH_b2_05873_0001_0000600060_0000001_0_0001_af2pred_0001 (protein)
chain: SSSSDEIAEDTARLALRAVELAGDERAKERARHLVELAIEQAKDPEVQRLLEEILERLEELSSSS
B8: il10ra_site1_normal_mot_3f97b56ee9d4307c590b2d1c156a89aa_0001_af2_000000000_0001_36_49_H_._HHH_b1_08226_af2_0001_0000400016_0000001_0 (protein)
chain: SSSSDELYEFLREVFRELDEAHRRNDPELFEEIYEEARRELEELGDEYAVALLESLFRRLSSSSS
B9: il10ra_site1_normal_mot_HHH_b2_02537_000000065_0001_1_20_H_._HHH_b1_01288_0001_0000200022_0000001_0 (protein)
chain: SSSSSTDEEFEEVKRLIKLLAEARSEEERREIEELMEELQEHVDEIFRFALEHFLRLQRSSSSSS
B10: il10ra_site1_normal_mot_HHH_b1_05056_000000217_0001_1_20_H_._HHH_b2_02194_0001_0000700035_0000001_0 (protein)
chain: SSSSSSSSVEEEVEELLEEAKHVDPEEAARLLAEALRVAYEGKNEELLKEIWEVVRELSSSSSSS
B11: il10ra_site1_normal_mot_HHH_b1_08697_af2_000000298_0001_1_18_H_._HHH_b1_07925_0001_0000300029_0000001_0_af2pred_dldesign_0_af2pred (protein)
chain: SSSSKEKIKKAIETLLDYARLAAAQGRPDEARRLLESARYLAKKAGDEDLLKEIEDLLAAISSSS
B12: il10ra_site1_sap_10_mot_HHH_b2_04057_000000065_0001_1_20_H_._HHH_b1_02339_af2_0001_0000200019_0000002_0_0001 (protein)
chain: SSSSSEEEEEIRELLEELERLLREGDREEAMKVAHRILRLIARLGNAELLELLWRLLHEWLSSSS
B13: il10ra_site1_normal_mot_HHH_b2_01310_000000089_0001_41_55_H_._HHH_b1_01638_0001_0000100004_0000001_0 (protein)
chain: SSSSDKEELEELLEELEELLHTDHEEFVEVAQEAVRHAFELGDAEVLHLLWELVQRLRELSSSSS
B14: il10ra_site1_normal_mot_HHH_b2_04912_000000028_0001_1_20_H_._HHH_b1_04441_0001_0000400046_0000001_0 (protein)
chain: SSSSDEEREELLRLIREIFRLLLRGNPEEAREVLKELEELAEQVGDEAVKKAVRILEEAASSSSS
B15: il10ra_site1_normal_mot_HHH_b2_06602_000000226_0001_1_16_H_._HHH_b1_00447_0001_0000300020_0000001_0_af2pred_0001 (protein)
chain: SSSSSEELAKRAFRLLVKAFELARKGNPEEARKVLEEAEELAEEGNDEALVRALRVLLRLLSSSS
B16: il10ra_site1_sap_24_mot_HHH_b1_00169_000000276_0001_1_18_H_._HHH_b1_05295_0001_0000200012_0000001_0_0001 (protein)
chain: SSSSDEDEEYARMALRFVEWLIEAGNPEAARSMLRAAKQVVKRLGDEEVLRLLEELQEELSSSSS
B17: il10ra_site1_sap_12_mot_HHH_b2_08172_af2_000000094_0001_41_56_H_._4d38eb9c16805ff794392fe48eb80f74_0001_0001_0000200008_0000001_0_0001 (protein)
chain: TAAFKAAQLTVKALELLQENTEEAREKVEELSEEAEELLEKIDDPRERHYVEAAIRFIENAAKGS
B18: il10ra_site1_sap_12_mot_HHH_b2_06600_af2_000000211_0001_1_16_H_._HHH_b2_03325_0001_0000300035_0000002_0_0001_af2pred_0001 (protein)
chain: SSSSSSDEEEVRELLEEAEKVPDPEERSYLLIRAFAVAAQARNPELERLVREVAHKLISSSSSSS
B19: il10ra_site1_normal_mot_HHH_b1_06789_af2_000000041_0001_1_20_H_._HHH_b2_08151_0001_0000200026_0000001_0_af2pred_0001 (protein)
chain: SSSSNEAAKWLVELALETAEIAAKNGDPEKAERALRIAKLTAELNNDEELKEEIEEVERRISSSS
B20: il10ra_site1_normal_mot_8756ee2cf497b5429c717dfc0c0bcfd6_0001_000000186_0001_1_13_H_._HHH_b1_00596_af2_0001_0000100003_0000001_1 (protein)
chain: SSSSSDESEEVAELLREVAELERDGNPEEAEEVLRQAREIAEELGNDVLRVQIEYLERQLSSSSS
B21: il10ra_site1_normal_mot_e1dd4851c59bc1cdde016f988f6856bd_0001_1_000000200_0001_16_31_H_._HHH_b2_04538_0001_0000100013_0000002_0_af2pred_0001 (protein)
chain: SSSSSESEELMRELAIRLLELARRGDEEKFEELTEEAKRLLEELNDREAVRKIEILYKLLNSSSS
B22: il10ra_site1_normal_mot_HHH_b1_00999_000000080_0001_41_55_H_._HHH_b2_07428_0001_0000100013_0000001_0 (protein)
chain: SSSSSDEEEVEKLLEKAEELAERGNPEEANRLLQRAVQIAFRAKNQELLREIWEVVRRLGSSSSS
B23: il10ra_site1_normal_mot_HHH_b1_07641_af2_000000285_0001_1_21_H_._HHH_b2_02373_0001_0000100004_0000002_0_af2pred_0001 (protein)
chain: SSSSDTREAIKLAREAAEALNKGDTEEARELLEQAREIAEEAGNLVLLVAIEFLLEEVEQLSSSS
B24: il10ra_site1_sap_15_mot_HHH_b1_05357_000000034_0001_23_39_H_._HHH_b1_07279_0001_0000600048_0000001_0_0001 (protein)
chain: SSSSSTQEVYKLLKRAIELRRDGNPEEARELLERAQEIAEEEGSRVMEVIIEFVLKVVEDSSSSS
B25: il10ra_site1_normal_mot_HHH_b2_00230_000000227_0001_1_19_H_._HHH_b2_06600_0001_0000200024_0000001_0 (protein)
chain: SSSSSNDELYELVRELIKALRHGDEELFEKLLEEAEKLAEELNDFAVKFVLRLLERQLRHSSSSS
B26: il10ra_site1_normal_mot_HHH_b1_04175_af2_000000064_0001_24_41_H_._HHH_b2_08305_0001_0000100006_0000001_0_af2pred_0001 (protein)
chain: SSSSDVEEEVERLLEEAKHIEDPEELAEVLLEATELAWKNNDPELIHLVAKVAKEIKEELSSSSS
B27: il10ra_site1_sap_17_mot_HHH_b2_00984_000000042_0001_1_20_H_._HHH_b1_04789_af2_0001_0000100010_0000001_0_0001 (protein)
chain: SSSSSSDDRVARILMRASRAAFRGNHEEARELLEEAEEIVRELGDEHLLELIEDLLKSFSSSSSS
B28: il10ra_site1_sap_16_mot_HHH_b2_00943_af2_000000149_0001_1_17_H_._HHH_b1_06222_0001_0000300032_0000001_0_0001_af2pred_dldesign_0_af2pred (protein)
chain: SSSSSPENEELVRLIREVAELLYDGKPEEAREKLKEAEELTEKLGDEIFKRNIELLRKELESSSS
B29: il10ra_site1_normal_mot_8756ee2cf497b5429c717dfc0c0bcfd6_0001_000000186_0001_1_13_H_._HHH_b2_04893_0001_0000400029_0000001_0_af2pred_0001 (protein)
chain: SSSSDLSERVLELLREAVELYRNGNPEEAREVLEEAQELAEEGNSAVLEAQIRFLEKIVNSSSSS
B30: il10ra_site1_normal_mot_HHH_b1_08508_000000230_0001_42_56_H_._29942a5be24fc2f98b7700bb5318e672_0001_1_0001_0000300018_0000002_0 (protein)
chain: SEEEIEEILKELEERGNVAAFAILYFLRVLKKEGLSPKEAVELLLELAREQGNERAVRILEKLLK
B31: il10ra_site1_normal_mot_HHH_b2_00277_af2_000000172_0001_1_17_H_._HHH_b1_03696_0001_0000500029_0000002_0_af2pred_0001 (protein)
chain: SSSSSEEEIEERVKELLEEAKRIPDPKERSYVLIEAFALANRLNDDELKKLVEEVALELLSSSSS
B32: il10ra_site1_sap_15_mot_HHH_b1_03531_000000273_0001_41_54_H_._HHH_b2_00993_0001_0000200012_0000001_0_0001_af2pred_0001 (protein)
chain: SSSSTEEEIRELLEEVEELIERGNNHEAAKLLKKLAELISELNNDELLKELRELAQLVIRVSSSS
B33: il10ra_site1_sap_12_mot_HHH_b1_05329_000000008_0001_43_56_H_._HHH_b1_01196_af2_0001_0000500006_0000001_0_0001 (protein)
chain: SSSSSSEEELEELERELKEALEENDRQLVLELIIRLIRIAFQLNDPEALHLAFEAAKKLESSSSS
B34: il10ra_site1_sap_15_mot_HHH_b2_04586_000000230_0001_1_16_H_._7cf5847eaa050a71bc877a27954f5424_0001_1_af2_0001_0000300021_0000001_0_0001 (protein)
chain: SSSSDKAFEILRRVIEELLELFRNGNPEEAEELAREALEELRESGNRLAAWQLEEAIRLEKSSSS
B35: il10ra_site1_normal_mot_HHH_b1_05357_000000034_0001_23_39_H_._HHH_b2_03710_0002_0000100001_0000001_0_af2pred_0001 (protein)
chain: SSSSDEEEFQERVEELLEEAKKISDREEVAYLLIRAFALANQANDPELKELVEEVAKELISSSSS
B36: il10ra_site1_normal_mot_HHH_b1_03031_af2_000000117_0001_17_33_H_._HHH_b2_06828_af2_0001_0000700028_0000002_0_af2pred_0001 (protein)
chain: SSSSSEEVEKLIEEAKELLEEGNPEEAEELLAKALYLASRAGDRELALRITRLIAEILQSSSSSS
B37: il10ra_site1_normal_mot_HHH_b1_05672_af2_000000246_0001_1_19_H_._HHH_b1_01868_0001_0000500033_0000001_0 (protein)
chain: SSSSSEMEEYARIAARFARNAAETGNPELARRILRRAEEALKHANDEEALELIEELLEELSSSSS

Biological target: il10ra, Q13651
Assay: yeast display titration

Apparent Kd, inactive:
B1 no binding seen
B2 no binding seen
B3 no binding seen
B4 > 149 nM
B5 no binding seen
B6 no binding seen
B7 no binding seen
B8 no binding seen
B9 no binding seen
B10 no binding seen
B11 no binding seen
B12 no binding seen
B13 no binding seen
B14 no binding seen
B15 no binding seen
B16 no binding seen
B17 no binding seen
B18 no binding seen
B19 no binding seen
B20 no binding seen
B21 no binding seen
B22 no binding seen
B23 no binding seen
B24 no binding seen
B25 no binding seen
B26 no binding seen
B27 no binding seen
B28 no binding seen
B29 no binding seen
B30 no binding seen
B31 no binding seen
B32 no binding seen
B33 no binding seen
B34 no binding seen
B35 no binding seen
B36 no binding seen
B37 no binding seen
